Some results were stated once for a whole list of compounds, not compound by compound.
These molecules were tested against Cyclin E1 (Homo sapiens, UniProt P24864+Q96SW2) (assay: Cyclin E1 Cellular Degradation Assay (MSD)). Details: degradation of Cyclin E1 over degradation of GSPT1, Table 18.
Format: cell-based
Set-up: endogenous in cells; host or cells: OVCAR3
Procedure: Culturing cells: On Day 0, OVCAR3 cells were plated at 15,000 cells/well in 40 μL of culture medium (RPMI1640, 20% FBS, 0.01 insulin, 1% Anti/Anti) in a 384 well cell culture plate. Cell cultures were incubated for 24 hours at 37° C. and 5% CO2.
Coating MSD plates: On Day 1, rabbit anti-CCNE1 antibody (Abcam ab33911, 1 μg/mL in DPBS, […]) was dispensed to a Meso Scale Discovery plate (MSD L21XA). The MSD plate was spun briefly to ensure the solution coated the bottom of the well and incubated overnight at 4° C. On Day 2, the plate was washed 3 times with TBS +0.2% TWEEN, blocked for 1 hour with 3% MSD Blocker A (MSD R93AA-1, 30 μL/well), then washed again 3 times with TBS+0.2% TWEEN.
Treating and lysing cells: On Day 1, compounds of interest were dispensed into the cell cultures by acoustic dispensing technology. The cell cultures were then spun at 400 g for 4 minutes to disperse the compounds and incubated at 37° C. and 5% CO2 for 24 hours. After incubation, 40 μL of DPBS was added to the cell cultures to dilute the media. All liquid was gently discarded and immediately replaced with 30 μL of lysis buffer (MSD Tris Lysis buffer (MSD R60TX-2), Halt Protease inhibitor (ThermoFisher 78438), Phosphatase Inhibitor II (Sigma-Aldrich P5726), Phosphatase Inhibitor III (Sigma-Aldrich P0044), 0.02M PMSF (Sigma-Aldrich 7626), 0.1% SDS (VWR E719-100ML)). The plate was then sealed, shaken at 300 rpm at room temperature for 5 minutes, and freeze-thawed for optimum cell lysis.
Collecting data: After thawing, 25 μL of lysate was transferred to a coated MSD plate. The plate was then sealed and shaken at 300 rpm overnight in 4° C. On Day 3, the MSD plate was washed 3 times with TBS+0.2% TWEEN. Mouse anti-CCNE1 antibody (Abcam ab238081, 0.5 μg/mL in 1% MSD Blocker A, 10 μL/well) dispensed to the MSD plate, which was then sealed and shaken at room temperature for 3 hours. After the first antibody incubation, the plate was washed 3 times with TBS+0.2% TWEEN, then goat anti-mouse Sulfo-Tag antibody (MSD R32AC, 1 μg/mL in 1% MSD Blocker A, 10 μL/well) was dispensed to the MSD plate. The plate was sealed again and shaken at room temperature for 1 hour, then washed 3 times with TBS+0.2% TWEEN. After the final wash, 35 μL of 1× Read Buffer (MSD R92TC-1) was added to each well and the data was captured using the MSD plate reader. The reference compound, [2-(2,6-dioxopiperidin-3-yl)-4-methoxy-3-oxo-2,3-dihydro-1H-isoindol-5-yl]methyl N-[4-(3,4-difluorophenoxy)phenyl]carbamate, at […] was used to define […]. Assay results for each compound were reported as DC50, the concentration giving 50% response, and Dmax, the maximum response observed with the compound.

The chains behind the UniProt entries cited, without tags or fusion partners. Where a name states a change or a piece, a line headed by the entry shows the natural chain unless it says otherwise.
UniProt P24864, whole entry: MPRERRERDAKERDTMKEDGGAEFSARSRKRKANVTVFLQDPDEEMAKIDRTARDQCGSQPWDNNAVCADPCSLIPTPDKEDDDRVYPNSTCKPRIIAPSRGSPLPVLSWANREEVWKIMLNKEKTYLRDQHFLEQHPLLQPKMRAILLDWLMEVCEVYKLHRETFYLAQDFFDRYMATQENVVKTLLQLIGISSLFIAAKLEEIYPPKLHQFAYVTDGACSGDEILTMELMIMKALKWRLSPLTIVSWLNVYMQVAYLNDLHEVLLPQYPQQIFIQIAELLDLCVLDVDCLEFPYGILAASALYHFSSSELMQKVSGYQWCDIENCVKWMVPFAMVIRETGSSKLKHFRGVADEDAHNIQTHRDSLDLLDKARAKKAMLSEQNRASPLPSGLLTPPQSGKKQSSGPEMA
UniProt Q96SW2: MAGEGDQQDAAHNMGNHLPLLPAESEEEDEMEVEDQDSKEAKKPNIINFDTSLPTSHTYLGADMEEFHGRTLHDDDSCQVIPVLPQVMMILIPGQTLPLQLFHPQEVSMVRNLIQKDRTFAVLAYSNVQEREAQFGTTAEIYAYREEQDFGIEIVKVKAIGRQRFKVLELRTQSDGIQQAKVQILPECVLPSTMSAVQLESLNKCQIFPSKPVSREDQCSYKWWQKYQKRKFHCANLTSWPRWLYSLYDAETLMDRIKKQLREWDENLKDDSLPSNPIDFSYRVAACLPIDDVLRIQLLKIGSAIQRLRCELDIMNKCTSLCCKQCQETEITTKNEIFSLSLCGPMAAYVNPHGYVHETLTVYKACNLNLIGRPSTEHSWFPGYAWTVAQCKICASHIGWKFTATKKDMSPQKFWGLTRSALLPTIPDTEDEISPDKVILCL

selectivity, ratio of GSPT1 DC50/Cyclin E1 DC50, at least 9:
COc1c(COC(=O)Nc2ccc(Oc3cc(F)c(F)cc3F)cc2F)ccc2c1C(=O)N(C1CCC(=O)NC1=O)C2 (stereo not shown) [Example 43, [2-(2,6-dioxopiperidin-3-yl)-4-methoxy-3-oxo-2,3-dihydro-1H-isoindol-5-yl]methyl N-[2-fluoro-4-(2,4,5-trifluorophenoxy)phenyl]carbamate]
COc1c(COC(=O)Nc2ccc(Oc3cc(F)c(F)cc3F)cc2)ccc2c1C(=O)N(C1CCC(=O)NC1=O)C2 (stereo not shown) [Example 44, [2-(2,6-dioxopiperidin-3-yl)-4-methoxy-3-oxo-2,3-dihydro-1H-isoindol-5-yl]methyl N-[4-(2,4,5-trifluorophenoxy)phenyl]carbamate]
COc1c(COC(=O)Nc2ccc(Oc3cc(F)c(F)cc3F)cc2C)ccc2c1C(=O)N(C1CCC(=O)NC1=O)C2 (stereo not shown) [Example 45, [2-(2,6-dioxopiperidin-3-yl)-4-methoxy-3-oxo-2,3-dihydro-1H-isoindol-5-yl]methyl N-[2-methyl-4-(2,4,5-trifluorophenoxy)phenyl]carbamate]
COc1c(COC(=O)Nc2ccc(Oc3ccc(F)c(F)c3)cc2Cl)ccc2c1C(=O)N(C1CCC(=O)NC1=O)C2 (stereo not shown) [Example 46, [2-(2,6-dioxopiperidin-3-yl)-4-methoxy-3-oxo-2,3-dihydro-1H-isoindol-5-yl]methyl N-[2-chloro-4-(3,4-difluorophenoxy)phenyl]carbamate]
COc1cc(Oc2ccc(F)c(F)c2)ccc1NC(=O)OCc1ccc2c(c1OC)C(=O)N(C1CCC(=O)NC1=O)C2 (stereo not shown) [Example 47, [2-(2,6-dioxopiperidin-3-yl)-4-methoxy-3-oxo-2,3-dihydro-1H-isoindol-5-yl]methyl N-[4-(3,4-difluorophenoxy)-2-methoxyphenyl]carbamate]
COc1cc(Oc2cccc(F)c2)ccc1NC(=O)OCc1ccc2c(c1OC)C(=O)N(C1CCC(=O)NC1=O)C2 (stereo not shown) [Example 48, [2-(2,6-dioxopiperidin-3-yl)-4-methoxy-3-oxo-2,3-dihydro-1H-isoindol-5-yl]methyl N-[4-(3-fluorophenoxy)-2-methoxyphenyl]carbamate]
COc1cc(Oc2ccc(F)cc2F)ccc1NC(=O)OCc1ccc2c(c1OC)C(=O)N(C1CCC(=O)NC1=O)C2 (stereo not shown) [Example 49, [2-(2,6-dioxopiperidin-3-yl)-4-methoxy-3-oxo-2,3-dihydro-1H-isoindol-5-yl]methyl N-[4-(2,4-difluorophenoxy)-2-methoxyphenyl]carbamate]
COc1cc(Oc2ccc(F)cc2OC)ccc1NC(=O)OCc1ccc2c(c1OC)C(=O)N(C1CCC(=O)NC1=O)C2 (stereo not shown) [Example 50, [2-(2,6-dioxopiperidin-3-yl)-4-methoxy-3-oxo-2,3-dihydro-1H-isoindol-5-yl]methyl N-[4-(4-fluoro-2-methoxyphenoxy)-2-methoxyphenyl]carbamate]
COc1c(COC(=O)Nc2ccc(Oc3ccc(F)cc3)cc2C)ccc2c1C(=O)N(C1CCC(=O)NC1=O)C2 (stereo not shown) [Example 51, [2-(2,6-dioxopiperidin-3-yl)-4-methoxy-3-oxo-2,3-dihydro-1H-isoindol-5-yl]methyl N-[4-(4-fluorophenoxy)-2-methylphenyl]carbamate]
CCOc1c(COC(=O)Nc2ccc(Oc3ccccc3)cc2)ccc2c1C(=O)N(C1CCC(=O)NC1=O)C2 (stereo not shown) [Example 52, [2-(2,6-dioxopiperidin-3-yl)-4-ethoxy-3-oxo-2,3-dihydro-1H-isoindol-5-yl]methyl N-(4-phenoxyphenyl)carbamate]
CCOc1c(COC(=O)Nc2ccc(Oc3ccc(F)c(F)c3)cc2)ccc2c1C(=O)N(C1CCC(=O)NC1=O)C2 (stereo not shown) [Example 53, [2-(2,6-dioxopiperidin-3-yl)-4-ethoxy-3-oxo-2,3-dihydro-1H-isoindol-5-yl]methyl N-[4-(3,4-difluorophenoxy)phenyl]carbamate]
CCOc1c(COC(=O)Nc2ccc(Oc3cccc(Cl)c3)cc2)ccc2c1C(=O)N(C1CCC(=O)NC1=O)C2 (stereo not shown) [Example 54, [2-(2,6-dioxopiperidin-3-yl)-4-ethoxy-3-oxo-2,3-dihydro-1H-isoindol-5-yl]methyl N-[4-(3-chlorophenoxy)phenyl]carbamate]
CCOc1c(COC(=O)Nc2ccc(Oc3cccc(F)c3)cc2)ccc2c1C(=O)N(C1CCC(=O)NC1=O)C2 (stereo not shown) [Example 55, [2-(2,6-dioxopiperidin-3-yl)-4-ethoxy-3-oxo-2,3-dihydro-1H-isoindol-5-yl]methyl N-[4-(3-fluorophenoxy)phenyl]carbamate]
CC(C)Oc1c(COC(=O)Nc2ccc(Oc3ccc(F)c(F)c3)cc2)ccc2c1C(=O)N(C1CCC(=O)NC1=O)C2 (stereo not shown) [Example 56, [2-(2,6-dioxopiperidin-3-yl)-3-oxo-4-(propan-2-yloxy)-2,3-dihydro-1H-isoindol-5-yl]methyl N-[4-(3,4-difluorophenoxy)phenyl]carbamate]
CC(C)Oc1c(COC(=O)Nc2ccc(Oc3ccccc3)cc2)ccc2c1C(=O)N(C1CCC(=O)NC1=O)C2 (stereo not shown) [Example 57, [2-(2,6-dioxopiperidin-3-yl)-3-oxo-4-(propan-2-yloxy)-2,3-dihydro-1H-isoindol-5-yl]methyl N-(4-phenoxyphenyl)carbamate]
CC(C)Oc1c(COC(=O)Nc2ccc(Oc3cccc(Cl)c3)cc2)ccc2c1C(=O)N(C1CCC(=O)NC1=O)C2 (stereo not shown) [Example 58, [2-(2,6-dioxopiperidin-3-yl)-3-oxo-4-(propan-2-yloxy)-2,3-dihydro-1H-isoindol-5-yl]methyl N-[4-(3-chlorophenoxy)phenyl]carbamate]
CC(C)Oc1c(COC(=O)Nc2ccc(Oc3ccc(F)cc3)cc2)ccc2c1C(=O)N(C1CCC(=O)NC1=O)C2 (stereo not shown) [Example 59, [2-(2,6-dioxopiperidin-3-yl)-3-oxo-4-(propan-2-yloxy)-2,3-dihydro-1H-isoindol-5-yl]methyl N-[4-(4-fluorophenoxy)phenyl]carbamate]
O=C1CCC(N2Cc3ccc(COC(=O)Nc4ccc(Oc5ccccc5)cc4)c(OC(F)F)c3C2=O)C(=O)N1 (stereo not shown) [Example 60, [4-(difluoromethoxy)-2-(2,6-dioxopiperidin-3-yl)-3-oxo-2,3-dihydro-1H-isoindol-5-yl]methyl N-(4-phenoxyphenyl)carbamate]
O=C1CCC(N2Cc3ccc(COC(=O)Nc4ccc(Oc5ccc(F)c(F)c5)cc4)c(OC(F)F)c3C2=O)C(=O)N1 (stereo not shown) [Example 61, [4-(difluoromethoxy)-2-(2,6-dioxopiperidin-3-yl)-3-oxo-2,3-dihydro-1H-isoindol-5-yl]methyl N-[4-(3,4-difluorophenoxy)phenyl]carbamate]
O=C1CCC(N2Cc3ccc(COC(=O)Nc4ccc(Oc5ccccc5)cc4)c(Oc4ccccc4)c3C2=O)C(=O)N1 (stereo not shown) [Example 62, [2-(2,6-dioxopiperidin-3-yl)-3-oxo-4-phenoxy-2,3-dihydro-1H-isoindol-5-yl]methyl N-(4-phenoxyphenyl)carbamate]
O=C1CCC(N2Cc3ccc(COC(=O)Nc4ccc(Oc5ccc(F)c(F)c5)cc4)c(Oc4ccccc4)c3C2=O)C(=O)N1 (stereo not shown) [Example 63, [2-(2,6-dioxopiperidin-3-yl)-3-oxo-4-phenoxy-2,3-dihydro-1H-isoindol-5-yl]methyl N-[4-(3,4-difluorophenoxy)phenyl]carbamate]
O=C1CCC(N2Cc3ccc(COC(=O)Nc4ccc(Oc5cccc(F)c5)cc4)c(Oc4ccccc4)c3C2=O)C(=O)N1 (stereo not shown) [Example 64, [2-(2,6-dioxopiperidin-3-yl)-3-oxo-4-phenoxy-2,3-dihydro-1H-isoindol-5-yl]methyl N-[4-(3-fluorophenoxy)phenyl]carbamate]
